The values that follow come from publication PMC9186531, “Biochemical and structural characterization of the flavodoxin-like domain of the Schizosaccharomyces japonicus putative tRNA ^Phe 4-demethylwyosine synthase Tyw1 in complex with FMN” (microPublication Biology, 2022).

Assay [1] addresses Schizosaccharomyces japonicus Tyw1 recombinant fragment 30-251 (Schizosaccharomyces japonicus) (UniProt B6K6D6). Description: AUC; sedimentation velocity, 60,000 RPM, 293 K, absorbance at 280 nm; 150 mM KCl, 20 mM NaCl, 2 mM MgCl2, 5% glycerol, 50 mM Hepes-NaOH pH 7.5, 0.5 mM 2-mercaptoethanol; c(S) analysis with SEDFIT; both purified.
Assay [2] addresses Schizosaccharomyces japonicus Tyw1 recombinant fragment 76-251 (Schizosaccharomyces japonicus) (UniProt B6K6D6). Described as above.

These are yes or no findings as the source states them, for the method shown. Where a sequence is shown, tags or fusion partners need not be part of it.

B1: Schizosaccharomyces japonicus Tyw1 recombinant fragment 30-251 (domain or fragment, UniProt B6K6D6 30-251)
chain: KKLAKPEKIASATSLKGSTPKAPKVFRKTEKTKHSNRKIACEASTKSSRKLTDISACSINIFYSTLGGSTQKFAEHVADRIRSSLQTELVEILNLDYIDLDEYFSKGNSNTVYLVLLPSYAIESSIDYFLSALQTTIDDFRIVARPLEKLRGFAVLGFGDFEQYAGDLFCYQAIAADQRLAKLGAQRIAPLGVVNVKLEKAQVYEAMEAWTDLFLQYAKEKA
As to B1, in assay [1], the binding result is on record as “no binding”.

B2: Schizosaccharomyces japonicus Tyw1 recombinant fragment 76-251 (domain or fragment, UniProt B6K6D6 76-251)
chain: SSRKLTDISACSINIFYSTLGGSTQKFAEHVADRIRSSLQTELVEILNLDYIDLDEYFSKGNSNTVYLVLLPSYAIESSIDYFLSALQTTIDDFRIVARPLEKLRGFAVLGFGDFEQYAGDLFCYQAIAADQRLAKLGAQRIAPLGVVNVKLEKAQVYEAMEAWTDLFLQYAKEKA
On to B2, for which, in assay [2], the binding entry is on record as “no binding”.
